Earlier results in patent US11938138B2, “Methods for improved treatment of cancer” (Washington University, priority 2020, dated 2024).

Test system: Hematologic and solid malignancies; 17 with NMC
Settings: toxicity incidence; cited from earlier work

CCNC(=O)C[C@@H]1N=C(c2ccc(Cl)cc2)c2cc(OC)ccc2-n2c(C)nnc21 [GSK525762]
nausea: (40%),
thrombocytopenia: (44%),
vomiting: (29%)
